Measured values taken from PubChem BioAssay AID493014 (National Center for Advancing Translational Sciences (NCATS), 2011).
The other results are listed elsewhere or left out. Shown are side measurements of this screen, not its main read-out; they come without a call. Most of these compounds were active or inconclusive in the main read-out, so they are no random draw. Words in brackets tell the shape of the fitted curve; partial curves, single points and poor fits give uncertain potencies.

Assay: qHTS Assay to Find Inhibitors of Chronic Active B-Cell Receptor Signaling
Settings: ABC-DLBCL IkBa-CBG/CBR reporter, luminescence ratio (green luciferase fused to IkBa over red control in TMD8 lymphoma cells), 4 h
How it was run: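 Concentration-response series (up to 46 uM) were applied to TMD8 dual-reporter cells for 4 h at 37C with doxycycline. Green/red ratio, after filter-overlap correction, defined %Activity; red signal alone was normalised to basal cells and zero luminescence.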

[1] = measured here: CBR red luminescence, cell number
[2] = measured here: IkBa-CBG green luminescence

SMILES	AC50 [1]	AC50 [2]
Cc1ccc(NC(=O)C2CC(=O)N(c3ccc4c(c3)OCCO4)C2)cc1S(=O)(=O)N(C)C (configuration not stated)	1.64 µM [rising, full curve]	–
Cc1cc(C)cc(C(=O)NCC(=O)OCc2nc(N)nc(Nc3ccccc3C)n2)c1	25.9 µM [rising, single point]	–
Cn1c(CN2CCCCC2)nc2cc(NC(=O)c3ccccc3)ccc21	20.6 µM [falling, partial curve]	–
COc1ccc(/C=C2\SC(=S)N(CCCC(=O)NNC(=O)c3ccccc3O)C2=O)cc1	0.447 µM [falling, full curve]	–
CN(Cc1cccc2cnccc12)C(=O)c1cc(COc2ccc(F)cc2F)on1	14.1 µM [falling, partial curve, poor fit]	–
CN(Cc1nnc(-c2ccc(F)cc2)o1)c1ccccc1	11.2 µM [falling, single point]	–
Cc1ccccc1C(=O)NC(=S)Nc1ccc(S(=O)(=O)N2CCN(C)CC2)cc1	2.91 µM [falling, full curve, poor fit]	–
CCN(CC)S(=O)(=O)c1ccc(N=N/C(C(C)=O)=C(/C)O)cc1	2.59 µM [falling, full curve, poor fit]	–
Cc1cccc(N2CCN(C(=O)CSc3nnnn3C3CC3)CC2)c1C	–	5.17 µM [falling, partial curve, poor fit]
O=C(CN1C(=O)CC(c2ccco2)Sc2ccccc21)Nc1ccccc1F (configuration not stated)	0.58 µM [falling, full curve, poor fit]	–
C=CCNC(=S)Nc1cc(C)ccn1	35.5 µM [rising, single point]	35.5 µM [falling, single point]
Cc1ccc(C)c(-n2c3nc(=O)[nH]c(=O)c-3cc3cc([N+](=O)[O-])ccc32)c1	14.6 µM [rising, partial curve]	8.2 µM [falling, partial curve]
CC(C)NC(=O)C1CCN(C(=O)N(C)C)CC1	9.2 µM [rising, partial curve, poor fit]	–
CCn1c(=O)c2cc(C(=O)NC(C)C)sc2c2ccccc21	0.112 µM [rising, full curve, poor fit]	–
CC1(C)CC(=O)C(C=N)=C(O)C1	12.6 µM [rising, single point]	–
Cc1c(C)n2c(SCC(=O)N3CCCCCC3)nnc2[nH]c1=O	0.00461 µM [rising, full curve, poor fit]	–
CC1=NNC(=O)C1C(c1ccc(Cl)cc1)C(C#N)C#N (configuration not stated)	35.5 µM [falling, single point]	–
Cc1ccc(S(=O)(=O)N2CCC(C(=O)OCC(=O)N(C)CC(=O)Nc3ccc(F)cc3)CC2)cc1C	5.8 µM [falling, partial curve, poor fit]	–
CCOC(=O)C1Cn2c(nc3c(c2=O)C2(CCCC2)Cc2ccccc2-3)S1 (configuration not stated)	17.8 µM [falling, single point]	–
COc1ccc(Nc2ccnc(Nc3ccc(OC)cc3)n2)cc1	5.17 µM [falling, full curve, poor fit]	–
COc1ccccc1C(=O)NCC(=O)NCCc1ccc(Cl)cc1	5.62 µM [rising, partial curve, poor fit]	–

Some of the entries so far, with each value named.
Cc1cccc(N2CCN(C(=O)CSc3nnnn3C3CC3)CC2)c1C
  AC50 [2]: 5.17 µM [falling, partial curve, poor fit]
O=C(CN1C(=O)CC(c2ccco2)Sc2ccccc21)Nc1ccccc1F (configuration not stated)
  AC50 [1]: 0.58 µM [falling, full curve, poor fit]

Next results.

SMILES	AC50 [1]	AC50 [2]
CCC(=O)OC1(C)C(=O)C2=COC(c3ccc(OC)cc3)=CC2=C(Br)C1=O (configuration not stated)	11.2 µM [rising, partial curve]	–
Cc1cc(C)c2sc(NC(=O)c3ccc(N4C(=O)CCC4=O)cc3)nc2c1	0.631 µM [falling, full curve, poor fit]	–
COC(=O)Cn1nnc2c(cnn2-c2ccccc2)c1=O	3.98 µM [rising, full curve]	–
COc1ccc2c(c1)c(=O)oc1cc(OCC(=O)NCC3CCC(C(=O)O)CC3)ccc12 (configuration not stated)	2.51 µM [falling, partial curve, poor fit]	–
O=C(Cn1nnc(-c2ccc(F)cc2)n1)Nc1cccc(S(=O)(=O)N2CCCC2)c1	20.6 µM [falling, single point]	–
CN(C)CCOc1ccc(C(C)(C)c2ccccc2)cc1	3.16 µM [rising, full curve, poor fit]	–
CSc1ccc(CN(C)C(=O)c2cc(=O)[nH]c3ccccc23)cc1	35.5 µM [rising, single point]	–
CCN(c1ccc(OC)cc1)S(=O)(=O)N1CCCC(C(=O)NCc2ccccc2Br)C1 (configuration not stated)	22.4 µM [falling, single point]	–
O=C(NC1CCCCC1)c1cc(-c2ccc(O)cc2)on1	1.58 µM [falling, full curve]	–
CC1Cc2ccccc2N1C(=O)CCS(=O)(=O)c1cccs1 (configuration not stated)	7.94 µM [rising, partial curve, poor fit]	–
COc1ccc(COc2cc(-c3cccc(OC)c3)nc3ccc(NC(=O)c4ccc(OC)cc4)cc23)cc1	29.1 µM [rising, single point]	18.4 µM [falling, single point]
COc1ccc(NC(=O)c2cccc(N3C(=O)C4C5C=CC(C6CC56)C4C3=O)c2)c(OC)c1 (configuration not stated)	35.5 µM [falling, single point]	–
CC1CC(C)CN(CCOCCSc2ccc(Cl)cc2)C1 (configuration not stated)	10 µM [falling, partial curve, poor fit]	–
Cc1cc(F)ccc1NC(=O)C(C)n1c2ccccc2c2nc(=O)cc(C)n21 (configuration not stated)	5.62 µM [falling, partial curve, poor fit]	–
CC(=O)N1C(=O)/C(=C2\SC(=S)N(NC(=O)c3ccc(O)cc3)C2=O)c2ccccc21	22.4 µM [falling, single point]	–
CC(c1nc2ccccc2c(=O)[nH]1)N(C)CCOc1ccc(Cl)cc1 (configuration not stated)	0.631 µM [rising, partial curve]	–
CC1=NN(C(N)=S)C(=O)C1N=Nc1cccc(C(=O)O)c1 (configuration not stated)	0.355 µM [falling, full curve]	–
COc1ccc(CCNC(=O)C2CCCN2C(=O)NC2CCCCC2)cc1OC (configuration not stated)	0.1 µM [rising, full curve, poor fit]	–
CCc1ccc(NC(=O)C(=O)NCCN2CCN(C(=O)c3ccco3)CC2)cc1	18.4 µM [rising, single point]	–
O=C(Nc1ccc(N2CCOCC2)cc1)c1nc2ccccc2s1	7.08 µM [falling, full curve, poor fit]	–
CCN(CC)CCNC(=O)c1cc2c(-c3ccc(Cl)cc3)nn(C)c2s1	23.1 µM [falling, single point]	–

SMILES	AC50 [1]	AC50 [2]
CCCCN(C(=O)CSc1nc2ccccc2n1CC)C1CCS(=O)(=O)C1 (configuration not stated)	5.8 µM [rising, single point]	23.1 µM [falling, partial curve, poor fit]
COc1ccccc1NC(=O)OC(C)c1ccc(Cl)cc1 (configuration not stated)	15.8 µM [rising, partial curve, poor fit]	–
CCOC(=O)c1sc(NC(=O)C2CC2)nc1C	5.17 µM [falling, full curve]	–
CN1CCN(Cc2nc(-c3cccs3)no2)CC1c1ccccc1 (configuration not stated)	3.55 µM [falling, full curve, poor fit]	–
COc1ccc(-n2cc3c(-c4cccc(Br)c4)nnc(C)c3n2)cc1	32.6 µM [falling, single point]	–
COc1ccc(CNc2nc(-c3ccccc3)nc3ccccc23)cc1OC	35.5 µM [falling, single point]	–
O=S(=O)(Nc1ccc2c(c1)nc1n2CCN(Cc2ccccc2)C1)c1ccc(Cl)cc1	2.82 µM [falling, partial curve, poor fit]	–
C/C(=N/NC(=O)CNC(=O)c1ccncc1)c1ccco1	12.6 µM [falling, single point]	–
Cc1cccc(C)c1NC(=O)CSc1nnc(-c2ccccc2)n1Cc1ccc2c(c1)OCO2	35.5 µM [falling, single point]	–
Oc1cccc(/C=N/N2CCN(c3ccccn3)CC2)c1	15.8 µM [falling, single point]	–
CC(C)OC(=O)c1c2c(n3ccccc13)C(=O)c1ccccc1C2=O	16.4 µM [falling, single point]	–
CCCCn1c(-c2csc(C(C)C)c2)n[nH]c1=S	13 µM [rising, partial curve, poor fit]	23.1 µM [falling, partial curve, poor fit]
CN(C)CCNC(=O)c1cc(Sc2ccc(F)cc2)nc2ccccc12	14.1 µM [falling, single point]	–
COc1ccc(C2(C)NC(=O)N(CC(=O)c3cc(C)n(C4CC4)c3C)C2=O)cc1OC (configuration not stated)	3.66 µM [rising, single point]	–
Cc1[nH]c2c(C(=O)N3CCCC(CCC(=O)NCc4ccccc4F)C3)cccc2c1C (configuration not stated)	25.1 µM [falling, single point]	–
CC(C)c1ccc(NC(=S)NC2CCN(Cc3ccccc3)CC2)cc1	4.11 µM [rising, single point]	–
Cc1cc(O)c(C(C[N+](=O)[O-])c2ccc(Cl)cc2)c(=O)o1 (configuration not stated)	0.206 µM [falling, full curve, poor fit]	–
Cn1cc(Cl)c(C(=O)Nc2cccc(Cl)c2Cl)n1	2.31 µM [falling, full curve]	–
COc1ccc(-c2nn(-c3ccccc3)cc2C(=O)Nc2ccc(C(=O)O)cc2)cc1	5.01 µM [falling, single point]	–
Cc1nc(NC(=S)NC(=O)c2ccccc2)sc1C	4.47 µM [falling, full curve]	–

Filtered by structure, those above with two or more sulfur atoms (7)
SMILES	AC50 [1]	AC50 [2]
COc1ccc(/C=C2\SC(=S)N(CCCC(=O)NNC(=O)c3ccccc3O)C2=O)cc1	0.447 µM [falling, full curve]	–
Cc1ccccc1C(=O)NC(=S)Nc1ccc(S(=O)(=O)N2CCN(C)CC2)cc1	2.91 µM [falling, full curve, poor fit]	–
CC1Cc2ccccc2N1C(=O)CCS(=O)(=O)c1cccs1 (configuration not stated)	7.94 µM [rising, partial curve, poor fit]	–
CC(=O)N1C(=O)/C(=C2\SC(=S)N(NC(=O)c3ccc(O)cc3)C2=O)c2ccccc21	22.4 µM [falling, single point]	–
CCCCN(C(=O)CSc1nc2ccccc2n1CC)C1CCS(=O)(=O)C1 (configuration not stated)	5.8 µM [rising, single point]	23.1 µM [falling, partial curve, poor fit]
CCCCn1c(-c2csc(C(C)C)c2)n[nH]c1=S	13 µM [rising, partial curve, poor fit]	23.1 µM [falling, partial curve, poor fit]
Cc1nc(NC(=S)NC(=O)c2ccccc2)sc1C	4.47 µM [falling, full curve]	–
